{"source": "the supplement of paper PMC8728848", "assay_in_all_cases": "glycan array binding signal (z-score within array); higher = stronger binding", "conditions_in_all_cases": "glycan notation: IUPAC condensed, linker removed", "key": {"[1]": {"molecular_target": "Neu5Ac(a2-3)Gal6S(b1-4)[Fuc(a1-3)]GlcNAc", "outline": "(§1)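 Glycan array data were curated from 3228 arrays in the Consortium for Functional Glycomics database and kept only where the protein sequence was available. Glycan names were converted to IUPAC-condensed notation, and columns mapping to the same glycan were averaged. The binding signal is a within-array Z-score, averaged across arrays of the same protein sequence at different concentrations or buffers and across linkers. Negative Z-scores can be read as non-binding.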"}, "[2]": {"molecular_target": "Neu5Ac(a2-3)GalNAc", "outline": "as §1"}, "[3]": {"molecular_target": "Neu5Ac(a2-3)GalNAc(b1-4)GlcNAc", "outline": "as §1"}, "[4]": {"molecular_target": "Neu5Ac(a2-3)[GalNAc(b1-4)]Gal(b1-4)Glc", "outline": "as §1"}, "[5]": {"molecular_target": "Neu5Ac(a2-3)[GalNAc(b1-4)]Gal(b1-4)GlcNAc", "outline": "as §1"}, "[6]": {"molecular_target": "Neu5Ac(a2-3)[Neu5Ac(a2-6)]GalNAc", "outline": "as §1"}, "[7]": {"molecular_target": "Neu5Ac(a2-6)Gal", "outline": "as §1"}, "[8]": {"molecular_target": "Neu5Ac(a2-6)Gal(b1-4)Glc", "outline": "as §1"}, "[9]": {"molecular_target": "Neu5Ac(a2-6)Gal(b1-4)GlcNAc", "outline": "as §1"}, "[10]": {"molecular_target": "Neu5Ac(a2-6)Gal(b1-4)GlcNAc(b1-2)Man(a1-3)[Gal(b1-4)GlcNAc(b1-2)Man(a1-6)]Man(b1-4)GlcNAc(b1-4)GlcNAc", "outline": "as §1"}, "[11]": {"molecular_target": "Neu5Ac(a2-6)Gal(b1-4)GlcNAc(b1-2)Man(a1-3)[GlcNAc(b1-2)Man(a1-6)]Man(b1-4)GlcNAc(b1-4)GlcNAc", "outline": "as §1"}, "[12]": {"molecular_target": "Neu5Ac(a2-6)Gal(b1-4)GlcNAc(b1-2)Man(a1-3)[GlcNAc(b1-2)Man(b1-4)GlcNAc(b1-2)Man(a1-6)]Man(b1-4)GlcNAc(b1-4)GlcNAc", "outline": "as §1"}, "[13]": {"molecular_target": "Neu5Ac(a2-6)Gal(b1-4)GlcNAc(b1-2)Man(a1-3)[Neu5Ac(a2-6)Gal(b1-4)GlcNAc(b1-2)Man(a1-6)]Man(b1-4)GlcNAc(b1-4)GlcNAc", "outline": "as §1"}, "[14]": {"molecular_target": "Neu5Ac(a2-6)Gal(b1-4)GlcNAc(b1-2)Man(a1-6)[Gal(b1-4)GlcNAc(b1-2)Man(a1-3)]Man(b1-4)GlcNAc(b1-4)GlcNAc", "outline": "as §1"}, "[15]": {"molecular_target": "Neu5Ac(a2-6)Gal(b1-4)GlcNAc(b1-2)Man(a1-6)[GlcNAc(b1-2)Man(a1-3)]Man(b1-4)GlcNAc(b1-4)GlcNAc", "outline": "as §1"}, "[16]": {"molecular_target": "Neu5Ac(a2-6)Gal(b1-4)GlcNAc(b1-3)Gal(b1-4)GlcNAc", "outline": "as §1"}, "[17]": {"molecular_target": "Neu5Ac(a2-6)Gal(b1-4)GlcNAc(b1-3)Gal(b1-4)[Fuc(a1-3)]GlcNAc(b1-3)Gal(b1-4)[Fuc(a1-3)]GlcNAc", "outline": "as §1"}, "[18]": {"molecular_target": "Neu5Ac(a2-6)Gal(b1-4)GlcNAc6S", "outline": "as §1"}, "[19]": {"molecular_target": "Neu5Ac(a2-6)GalNAc", "outline": "as §1"}, "[20]": {"molecular_target": "Neu5Ac(a2-6)GalNAc(b1-4)GlcNAc", "outline": "as §1"}, "[21]": {"molecular_target": "Neu5Ac(a2-8)Neu5Ac", "outline": "as §1"}, "[22]": {"molecular_target": "Neu5Ac(a2-8)Neu5Ac(a2-3)Gal(b1-4)Glc", "outline": "as §1"}, "[23]": {"molecular_target": "Neu5Ac(a2-8)Neu5Ac(a2-3)[GalNAc(b1-4)]Gal(b1-4)Glc", "outline": "as §1"}, "[24]": {"molecular_target": "Neu5Ac(a2-8)Neu5Ac(a2-8)Neu5Ac", "outline": "as §1"}, "[25]": {"molecular_target": "Neu5Ac(a2-8)Neu5Ac(a2-8)Neu5Ac(a2-3)Gal(b1-4)Glc", "outline": "as §1"}, "[26]": {"molecular_target": "Neu5Ac(a2-8)Neu5Ac(a2-8)Neu5Ac(a2-3)[GalNAc(b1-4)]Gal(b1-4)Glc", "outline": "as §1"}, "[27]": {"molecular_target": "Neu5Ac(a2-8)Neu5Ac(a2-8)Neu5Ac(a2-8)Neu5Ac(a2-3)[GalNAc(b1-4)]Gal(b1-4)Glc", "outline": "as §1"}, "[28]": {"molecular_target": "Neu5Ac(b2-6)Gal(b1-4)GlcNAc", "outline": "as §1"}, "[29]": {"molecular_target": "Neu5Ac(b2-6)GalNAc", "outline": "as §1"}, "[30]": {"molecular_target": "Neu5Ac9Ac(a2-6)Gal(b1-4)GlcNAc", "outline": "as §1"}, "[31]": {"molecular_target": "Neu5Gc(a2-3)Gal(b1-3)GlcNAc", "outline": "as §1"}, "[32]": {"molecular_target": "Neu5Gc(a2-3)Gal(b1-3)[Fuc(a1-4)]GlcNAc", "outline": "as §1"}, "[33]": {"molecular_target": "Neu5Gc(a2-3)Gal(b1-4)Glc", "outline": "as §1"}, "[34]": {"molecular_target": "Neu5Gc(a2-3)Gal(b1-4)GlcNAc", "outline": "as §1"}, "[35]": {"molecular_target": "Neu5Gc(a2-3)Gal(b1-4)[Fuc(a1-3)]GlcNAc", "outline": "as §1"}, "[36]": {"molecular_target": "Neu5Gc(a2-6)Gal(b1-4)GlcNAc", "outline": "as §1"}, "[37]": {"molecular_target": "Neu5Gc(a2-6)GalNAc", "outline": "as §1"}, "[38]": {"molecular_target": "Neu5Gc(b2-6)Gal(b1-4)GlcNAc", "outline": "as §1"}}, "note": "The other results are listed elsewhere or left out.", "data": [{"binder": "Mcg Light Chain Dimer (Homo sapiens), Q6PIK1 (protein) MAGFPLLLTLLTHCAGSWGQSLLTQPPSVSGTPGQRVTISCSGSSSNIGINYVYWYQQIPGTAPKLLISTNDQRPSGVPDRFSGSKSGTSASLAIGGLRSEDEAHYYCAAWDDSMSGPGYAFGTGTKVTVLRQPKANPTVTLFPPSSEELQANKATLVCLISDFYPGAVTVAWKADGSPVKAGVETTKPSKQSNNKYAASSYLSLTPEQWKSHRSYSCQVTHEGSTVEKTVAPTECS", "values": [{"measurement": "glycan array binding signal (z-score)", "setting": "[1]", "result": 2.77}, {"measurement": "glycan array binding signal (z-score)", "setting": "[2]", "result": 0.972}, {"measurement": "glycan array binding signal (z-score)", "setting": "[3]", "result": -0.859}, {"measurement": "glycan array binding signal (z-score)", "setting": "[4]", "result": -0.742}, {"measurement": "glycan array binding signal (z-score)", "setting": "[5]", "result": 0.214}, {"measurement": "glycan array binding signal (z-score)", "setting": "[6]", "result": -0.552}, {"measurement": "glycan array binding signal (z-score)", "setting": "[7]", "result": 0.635}, {"measurement": "glycan array binding signal (z-score)", "setting": "[8]", "result": 0.116}, {"measurement": "glycan array binding signal (z-score)", "setting": "[9]", "result": -0.24}, {"measurement": "glycan array binding signal (z-score)", "setting": "[10]", "result": 0.991}, {"measurement": "glycan array binding signal (z-score)", "setting": "[11]", "result": -0.753}, {"measurement": "glycan array binding signal (z-score)", "setting": "[12]", "result": -0.76}, {"measurement": "glycan array binding signal (z-score)", "setting": "[13]", "result": -0.154}, {"measurement": "glycan array binding signal (z-score)", "setting": "[14]", "result": 0.533}, {"measurement": "glycan array binding signal (z-score)", "setting": "[15]", "result": -0.928}, {"measurement": "glycan array binding signal (z-score)", "setting": "[16]", "result": -0.777}, {"measurement": "glycan array binding signal (z-score)", "setting": "[17]", "result": 1.03}, {"measurement": "glycan array binding signal (z-score)", "setting": "[18]", "result": -0.267}, {"measurement": "glycan array binding signal (z-score)", "setting": "[19]", "result": -1.03}, {"measurement": "glycan array binding signal (z-score)", "setting": "[20]", "result": 0.429}, {"measurement": "glycan array binding signal (z-score)", "setting": "[21]", "result": 0.574}, {"measurement": "glycan array binding signal (z-score)", "setting": "[22]", "result": 0.933}, {"measurement": "glycan array binding signal (z-score)", "setting": "[23]", "result": 1.28}, {"measurement": "glycan array binding signal (z-score)", "setting": "[24]", "result": -0.069}, {"measurement": "glycan array binding signal (z-score)", "setting": "[25]", "result": -0.874}, {"measurement": "glycan array binding signal (z-score)", "setting": "[26]", "result": 0.66}, {"measurement": "glycan array binding signal (z-score)", "setting": "[27]", "result": -0.996}, {"measurement": "glycan array binding signal (z-score)", "setting": "[28]", "result": -0.955}, {"measurement": "glycan array binding signal (z-score)", "setting": "[29]", "result": -0.173}, {"measurement": "glycan array binding signal (z-score)", "setting": "[30]", "result": -0.975}, {"measurement": "glycan array binding signal (z-score)", "setting": "[31]", "result": -0.735}, {"measurement": "glycan array binding signal (z-score)", "setting": "[32]", "result": 0.41}, {"measurement": "glycan array binding signal (z-score)", "setting": "[33]", "result": 0.902}, {"measurement": "glycan array binding signal (z-score)", "setting": "[34]", "result": -0.746}, {"measurement": "glycan array binding signal (z-score)", "setting": "[35]", "result": 1.2}, {"measurement": "glycan array binding signal (z-score)", "setting": "[36]", "result": 0.325}, {"measurement": "glycan array binding signal (z-score)", "setting": "[37]", "result": -0.859}, {"measurement": "glycan array binding signal (z-score)", "setting": "[38]", "result": -0.855}]}]}
